{"sequences": {"note": "The chains behind the UniProt entries cited, without tags or fusion partners. Residues count along the entry.", "UniProt P18850, residues 306-369": "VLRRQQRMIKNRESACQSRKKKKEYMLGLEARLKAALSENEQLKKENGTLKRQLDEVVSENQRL"}, "source": "paper PMC6514012", "about": "“Targeting the neuronal calcium sensor DREAM with small-molecules for Huntington’s disease treatment” (Scientific Reports, 2019)", "molecular_target": "T1, Myc-DREAM (aa 71–256) (UniProt Q9Y2W7)", "T1 sequence": "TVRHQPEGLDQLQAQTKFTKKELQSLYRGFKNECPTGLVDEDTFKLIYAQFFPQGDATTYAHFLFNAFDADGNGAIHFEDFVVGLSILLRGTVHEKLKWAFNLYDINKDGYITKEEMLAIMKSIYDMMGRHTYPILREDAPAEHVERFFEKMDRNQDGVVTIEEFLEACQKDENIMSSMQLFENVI", "assay": "co-IP; whole cell extracts (200 ug) of cotransfected HEK293-T cells; immunoprecipitation with rabbit anti-Myc, blot with mouse anti-Flag; 2 mM calcium; vehicle (DMSO) or IQM-PC330 (30, 100 and 300 nM)", "note": "No constants are given. Whether binding was seen depends on the method and setting. Binding seen in cells or lysates may run through a third protein. Some results given as binding are weak or reduced against the parent protein; the word gives no strength. Tags and fused reporters may be left off the sequences shown."}
{"substance": "Flag-ATF6 (bZIP fragment aa 306–369) (from UniProt P18850 306-369) (domain or fragment)", "values": [{"measurement": "binding", "result": "binds"}]}
